Experimental data published in PubChem BioAssay AID2685 (National Center for Advancing Translational Sciences (NCATS), 2010).
The list shows a part of the results. Further columns of the screen follow, without active or inactive calls. Compounds called inactive in the main read-out are mostly missing here. Words in brackets tell the shape of the fitted curve; partial curves, single points and poor fits give uncertain potencies.

Test: qHTS Assay for Lipid Storage Modulators in Drosophila S3 Cells;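 for cell number change: cells counted by Cell Tracker Red CMTPX staining in the red channel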
Conditions: BODIPY lipid droplet fluorescence, 18-24 h; for cell number change: measured here: cell count max response, cells fed with added oleic acid
Summary of the method: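 Laser-scanning cytometry quantifies lipid droplet accumulation (500–530 nm total intensity; droplet/cell object ratio) in oleic acid-fed (400 uM added) Drosophila S3 cells treated with a concentration series. 20 uM Triacsin C defined 100% inhibition.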

[1] = measured here: cell number channel AC50, cells fed with added oleic acid
[2] = measured here: lipid fluorescence (Fed channel) AC50, cells fed with added oleic acid

Row | Compound | cell number change | AC50 [1] | AC50 [2]
1 | CCOC(=O)Cc1csc(SCC(=O)/C(C#N)=C(\C)N)n1 | 43.1% | 10.3 µM [rising, partial curve, poor fit] | –
2 | O=C(Cc1cccs1)NCC1CCCO1 (stereo unspecified) | 32.4% | 32.6 µM [rising, single point] | –
3 | O=C(N/N=C/c1sc2ccccc2c1O)c1cccc2ccccc12 | -45.6% | 1.84 µM [falling, partial curve] | 6.51 µM [rising, partial curve]
4 | COc1ccc(OC)c(C(O)c2coc3ccc(O)c(CN4CCOCC4)c23)c1 (stereo unspecified) | -28.5% | – | –
5 | O=C(COC(=O)C1C2CC3OC(=O)C1C3C2)Nc1cccc(C(F)(F)F)c1 (stereo unspecified) | 6.67% | – | –
6 | CCC1CCc2sc(C(=O)NCC(c3ccc(OC)cc3)N3CCCC3)cc2C1 (stereo unspecified) | – | 6.51 µM [rising, single point] | 0.731 µM [falling, single point]
7 | Cc1ccc(N(CCC#N)C(=O)COC(=O)c2cc(C)no2)cc1 | – | – | 3.66 µM [falling, single point]
8 | O=C(O)C1CSC(c2ccccc2)N1C(=O)c1ccco1 (stereo unspecified) | 0.926% | – | –
9 | Cc1cccc2cc(CN(CCN3CCCC3)C(=O)NC3CCCCC3)c(=O)[nH]c12 | 11.4% | 6.51 µM [rising, single point] | –
10 | CC(C)(C)c1ccc(C(=O)NCC2CCCN2S(=O)(=O)c2ccccc2)cc1 (stereo unspecified) | 20% | – | –
11 | Cc1cc(NC(=O)C2CCN(C(=O)c3ccco3)CC2)ccc1Br | 29.1% | – | 29.1 µM [rising, single point]
12 | Cn1nnnc1SCc1cc(=O)[nH]c2ccccc12 | -0.117% | – | 0.731 µM [falling, single point]
13 | O=C(CC(=O)Nc1nc(C23CC4CC(CC(C4)C2)C3)cs1)NCCO | -26.6% | – | 9.2 µM [falling, partial curve, poor fit]
14 | COc1ccccc1N=c1oc2c(OC)cccc2cc1C(=O)NCc1ccco1 | -5.31% | – | 0.731 µM [rising, full curve, poor fit]
15 | Cc1nn(S(=O)(=O)c2ccccc2)c(C)c1S(=O)(=O)N1CCOCC1 | 3.4% | – | 29.1 µM [rising, single point]
16 | Cc1ccc(OCCCCNC(C)c2ccccc2)c(C)c1 (stereo unspecified) | 5.57% | – | –
17 | CC(C)(NO)/C(=N\O)c1ccccc1 | -0.919% | – | 3.26 µM [falling, single point]
18 | CCOc1ccccc1C(=S)NC1CCCCC1 | -24.3% | – | –
19 | COc1cccc(CN2C(=O)c3ccccc3S2(=O)=O)c1 | 21.7% | – | 6.51 µM [falling, single point]
20 | Cc1cc(CSc2ccccc2)ccc1NC(=O)c1cccc([N+](=O)[O-])c1 | -38.2% | 1.3 µM [falling, full curve] | 0.651 µM [falling, full curve]
21 | Cc1csc2c(=O)sc(NC(=O)c3ccco3)nc12 | 7.19% | – | –
22 | Cc1cc(N=Cc2cc(Cl)ccc2O)no1 | – | – | 2.91 µM [falling, full curve]

Record cards (already shown). Values in the order: cell number change	AC50 [1]	AC50 [2]
CCOC(=O)Cc1csc(SCC(=O)/C(C#N)=C(\C)N)n1 as listed: 43.1%	10.3 µM [rising, partial curve, poor fit]	–
O=C(O)C1CSC(c2ccccc2)N1C(=O)c1ccco1 (stereo unspecified) as listed: 0.926%	–	–

More entries follow:

Row | Compound | cell number change | AC50 [1] | AC50 [2]
23 | Cc1cc(NS(=O)(=O)c2ccc(NC(=O)C(F)(F)F)cc2)nc(C)n1 | 30.7% | – | –
24 | COc1cc(C(=O)NC(=S)Nc2ccc3[nH]c(=O)[nH]c3c2)cc(OC)c1OC | 35.5% | – | –
25 | CCN(CC)CCN(Cc1cc2cc3c(cc2[nH]c1=O)OCCO3)C(=S)NCCCN(C)C | -23.7% | – | 0.116 µM [falling, full curve, poor fit]
26 | O=[N+]([O-])c1ccc(COc2ccc(-c3[nH]ncc3-c3ccc(Cl)cc3)c(O)c2)cc1 | -69.4% | 11.6 µM [falling, partial curve] | 10.3 µM [falling, partial curve]
27 | CC(=O)c1ccc(OC(=O)c2ccc(Br)o2)cc1 | 2.5% | – | –
28 | Cc1ccc(Nc2nc(=O)c3cccnc3s2)c(Br)c1 | 8.77% | – | 29.1 µM [rising, single point]
29 | CC(CCC(=O)O)(c1ccc(O)cc1)c1ccc(O)cc1 | -2.82% | – | 0.00517 µM [falling, full curve, poor fit]
30 | CC(C)c1ccccc1NC(=S)NCC1(N(C)C)CCCCC1 | 9.83% | – | –
31 | Cc1c(S(=O)(=O)Nc2cccc(Cl)c2)c(=O)n(C)c(=O)n1C | 7.24% | – | 0.00517 µM [falling, full curve, poor fit]
32 | Cc1ccc(C)c(NC(=S)c2ccccn2)c1 | -9.21% | 6.51 µM [rising, single point] | 4.11 µM [rising, full curve]
33 | O=[N+]([O-])c1cccnc1S(=O)(=O)c1ccccc1 | -0.518% | – | –
34 | Cc1nc(NC2=NCN(Cc3ccco3)CN2)nc2ccccc12 | -3.93% | – | 0.291 µM [rising, single point]
35 | CC(NC(=O)COc1cccnc1[N+](=O)[O-])c1ccc(Cl)cc1 (stereo unspecified) | -1.26% | – | 3.66 µM [rising, full curve]
36 | Cc1cc(C)c2c(N)c(C(=O)c3ccccc3Cl)sc2n1 | – | – | 0.058 µM [rising, full curve]
37 | COc1ccc(C(C(=O)NC2CCCC2)N(C(=O)c2ccoc2C)c2ccccc2)cc1 (stereo unspecified) | 9.67% | – | –
38 | CN(C)Cc1c(O)ccc2c(=O)c(-c3ccccc3)c(C(F)(F)F)oc12 | -0.676% | – | –
39 | Cc1cc(C)nc(SCc2csc(N)n2)n1 | -24.2% | – | 6.51 µM [rising, single point]
40 | CCCn1c(SCc2ccccn2)nc2c1c(=O)n(C)c(=O)n2C | 3.09% | – | 0.0731 µM [falling, full curve, poor fit]
41 | CCOC(CNC(=O)c1cc(C)nn1-c1ccccc1)OCC | -10.3% | 0.731 µM [falling, full curve] | –
42 | N/C(Cn1cncn1)=N\NC(=O)c1ccc(Cl)cc1Cl | -19.9% | 7.31 µM [falling, single point] | 5.8 µM [falling, partial curve]
43 | COc1ccc(C(=O)c2c(N)sc3c2CCN(C(=O)OC(C)(C)C)C3)cc1 | 2.21% | – | 0.0058 µM [rising, full curve, poor fit]
44 | COc1ccc(F)cc1C(=O)C1CCCN(C(=O)c2cccc(N(C)C)c2)C1 (stereo unspecified) | -19.5% | – | 29.1 µM [falling, single point]
